According to patent publication US20260132200A1:
These are yes or no findings as the source states them, for the method shown. Some results given as binding are weak or reduced against the parent protein; the word gives no strength.

Chains of the proteins cited; added tags and fusions are not shown. Lines headed by an entry give the natural chain unless they say otherwise; changes in a name come on top.
UniProt P07766: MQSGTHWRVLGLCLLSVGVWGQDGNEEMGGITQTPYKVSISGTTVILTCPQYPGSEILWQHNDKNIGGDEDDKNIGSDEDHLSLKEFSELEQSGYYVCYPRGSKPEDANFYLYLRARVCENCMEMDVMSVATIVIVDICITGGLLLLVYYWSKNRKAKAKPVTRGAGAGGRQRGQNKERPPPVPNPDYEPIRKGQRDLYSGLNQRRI

Molecular target: human CD3 on Jurkat cells (CD3+, CD20- human T-cell line) (human) (UniProt P07766)
Experiment: FACS on Jurkat cells (CD3+, CD20-)

B1: BS3/20-002 (bispecific antibody, V domains shown)
VH 1: EVQLVESGGGLVQPGRSLRLSCVASGFTFNDYAMHWVRQAPGKGLEWVSVISWNSDSIGYADSVKGRFTISRDNAKNSLYLQMHSLRAEDTALYYCAKDNHYGSGSYYYYQYGMDVWGQGTTVTVSS
VH 2: EVQLVESGGGLVQPGGSLRLSCAATGFTFDDFTMHWVRQAPGKGLEWVSGISWNSGSIGYVDSVKGRFTISRDNAKNSLYLQMNSLRAEDTALYYCAKDNSGYGYYYYGMDVWGQGTTVTVSS
VL: EIVMTQSPATLSVSPGERATLSCRASHSVSRNSAWYQQKPGQAPRLLIYGASTRATGIPARFSGSGSGTEFTLTISSLQSEDFAIYYCQQYNNWPLTFGGGTKVEIK
- binding: binds
